According to patent US20260234553A1, “COMPOSITIONS COMPRISING SUPRAMOLECULAR ASSEMBLIES OF PEPTIDE AMPHIPHILES AND ORGANIC CATIONS AND METHODS OF USE THEREOF” (Northwestern University, priority 2023, published 2026):

Key:
[1] = system: PA filaments; assay: OC remaining in supernatant after ultracentrifugation of OCPA samples (quantitative 1H NMR); type: binding; details: [PA]0 10.00 mM
[2] = system: PA nanostructures; assay: 1H DOSY NMR of OC free and with PA; type: binding; details: HRMAS DOSY, pelleted OC-PA
Method: Binding of organic cations (OCs) to PA. Initial screening of interactions of five different OCs with PA was performed using ^1H NMR spectroscopy in solution (FIG. 53). Here, ^1H signals lineshape from the ^1H NMR spectra of OCs were compared and analyzed against the corresponding ^1H signals from OC-PA samples. It is expected that ^1H signals will experience broadening if binding is occurring. In all cases we observed significant broadening except for tetramethylammonium (OC4), indicating its poor binding to PA nanostructures. ^1H DOSY NMR measurements. Spectra were measured by monitoring the change in intensity of the corresponding resonances as a function of the field gradient strength g (G/cm). A 2D sequence was used for diffusion measurement based on stimulated echo and LED which applies bipolar gradient pulses for diffusion (2 spoil gradients) together with water presaturation during relaxation delay (ledbpgppr2s Bruker sequence). ^1H DOSY data were first processed in Topspin (Fourier transformation, phasing, and baseline correction) and then the peak intensities of the corresponding resonances were extracted and fitted to the Stejskal-Tanner equation (Eq. 1) to give the value of diffusion coefficient D (m^2/s). Solution ^1H DOSY NMR data were fit to Eq. 1 using NMRTools.jl{, #28110}. ^1H HRMAS DOSY NMR data were fit using the Eq. 1 using Dynamics Center 2.6.3 software. […]

[3] = 23Na NMR relaxometry, Na+/K+ competitive binding assay
[4] = 0 molar equiv. of K^+, 1 mM PA, 14.5 mM Na^+

Molecule	[OC]sn, concentration of OC in the supernatant ([1]; [OC]0 20.00 mM)	[OC]sn, concentration of OC in the supernatant ([1]; [OC]0 40.00 mM)	[OC]sn, concentration of OC in the supernatant ([1]; [OC]0 80.00 mM)	[OC]sn, concentration of OC in the supernatant ([1]; [OC]0 160.00 mM)	population, fast diffusing [2]	population, slow diffusing [2]	23Na R1 [3, 4]	23Na R2 [3, 4]	23Na R1 ([3]; 1 molar equiv. of K^+)	23Na R2 ([3]; 1 molar equiv. of K^+)	23Na R1 ([3]; 3 molar equiv. of K^+)	23Na R2 ([3]; 3 molar equiv. of K^+)	23Na R1 ([3]; 6 molar equiv. of K^+)	23Na R2 ([3]; 6 molar equiv. of K^+)
CCn1cc[n+](C)c1.[Cl-] [OC, 1-ethyl-3-methyl imidazolium chloride]	4.66 mM	14.96 mM	31.64 mM	58.45 mM	81.76±0.05%	18.24±0.03%	–	–	–	–	–	–	–	–
C16-VVAAEE [PA, peptide amphiphile monomer, C16=palmitoyl, assembles into one-dimensional nanostructures]	–	–	–	–	–	–	49.2 ± 0.4 s⁻¹	57.8 ± 1.2 s⁻¹	39.9 ± 0.2 s⁻¹	46.6 ± 1.1 s⁻¹	32.2 ± 0.2 s⁻¹	37.5 ± 1.1 s⁻¹	27.3 ± 0.1 s⁻¹	31.9 ± 1.1 s⁻¹
